Results on one molecule are retold here after article PMC9743537.

These are yes or no findings as the source states them, for the method shown. Binding seen in cells or lysates may run through a third protein. Binding calls can cover weak binding; strength is not graded here.

This experiment has as its target TLR4 protein (endogenous, HK-2 cells) (human (endogenous in HK-2)). Description: co-IP; HK-2 cell lysate (500 ug total protein), antibody overnight at 4 C, protein A/G beads, washed 5x with lysis buffer, Western blot; results and legend: IP with anti-TLR4 antibody, blot for mindin and TLR4 (methods describe IP with anti-mindin antibody, blot for TLR4). In general terms: A western blot detects proteins with antibodies after separation by electrophoresis.

B1: mindin protein (endogenous, HK-2 cells) (protein, UniProt Q9BUD6 27-331)
chain: QPLGGESICSARALAKYSITFTGKWSQTAFPKQYPLFRPPAQWSSLLGAAHSSDYSMWRKNQYVSNGLRDFAERGEAWALMKEIEAAGEALQSVHAVFSAPAVPSGTGQTSAELEVQRRHSLVSFVVRIVPSPDWFVGVDSLDLCDGDRWREQAALDLYPYDAGTDSGFTFSSPNFATIPQDTVTEITSSSPSHPANSFYYPRLKALPPIARVTLVRLRQSPRAFIPPAPVLPSRDNEIVDSASVPETPLDCEVSLWSSWGLCGGHCGRLGTKSRTRYVRVQPANNGSPCPELEEEAECVPDNCV
Take B1: the binding result is “binds”.
